PubChem BioAssay AID1224826 | NIAID | 2016
This is an unselected part of about 17,000 reagents. In the full data, about 1,110 (6.6%) are marked active. 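Active means lowered or raised reporter signal; replicate intensities are raw and not normalised per plate.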

Aim: 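Knock-downs that raise or lower Tnf reporter signal after endotoxin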 (primary screen)
Cells: RAW264.7 G9 macrophages from mouse bearing reporters for p65 (GFP) and the Tnf promoter (mCherry)
Reagent: siRNA pool against mouse genes, 100 nM
Duration: 16 h of LPS stimulation, after 2 days of siRNA transfection
Challenge: bacterial lipopolysaccharide (Salmonella minnesota R595), 10 ng/ml
Measured: 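Imaged Tnf reporter mCherry in nuclei, minus background, normalised per plate to the median and expressed as robust z-scores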
Direction: Tnf reporter robust z-score: higher = stronger Tnf promoter reporter signal after LPS; Tnf reporter intensity: higher = stronger Tnf promoter reporter signal
Active means: 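Called active when robust z-score is at most -1.3, matching the median of the Tlr4 knock-down control, or over 3; control wells and wells with under 50 cells never active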
Meaning of the calls: active = Tnf reporter clearly lowered or raised; inactive = no clear change in Tnf reporter

| Gene | Tnf reporter robust z-score | fewer than 50 cells in well | Tnf reporter intensity, replicate 1 | Tnf reporter intensity, replicate 2 | Call |
| --- | --- | --- | --- | --- | --- |
| Ifitm5 (interferon induced transmembrane protein 5) | -0.44 | enough cells in well | 171 | 120 | inactive |
| Orc3 (origin recognition complex, subunit 3) | 1.39 | enough cells in well | 220 | 191 | inactive |
| Slc36a2 | – | fewer than 50 cells per well; well left out of calls | 0 | 0 | inactive |
| Man1a (mannosidase 1, alpha) | -1.08 | enough cells in well | 132 | 83 | inactive |
| Fhad1 (forkhead-associated phosphopeptide binding domain 1) | -0.16 | enough cells in well | 154 | 163 | inactive |
| Prox2 (prospero homeobox 2) | 0.67 | enough cells in well | 260 | 52.1 | inactive |
| Rnf222 (ring finger protein 222) | -0.05 | enough cells in well | 190 | 171 | inactive |
| Cfp (complement factor properdin) | 0.83 | enough cells in well | 287 | 250 | inactive |
| Trem5 (triggering receptor expressed on myeloid cells 5) | 1.8 | enough cells in well | 283 | 310 | inactive |
| Mpp1 (membrane protein, palmitoylated) | -0.83 | enough cells in well | 168 | 116 | inactive |
| Ttll13 (tubulin tyrosine ligase-like family, member 13) | -0.21 | enough cells in well | 200 | 44 | inactive |
| Klhdc10 (kelch domain containing 10) | 0.29 | enough cells in well | 171 | 176 | inactive |
| Anks1 (ankyrin repeat and SAM domain containing 1) | -1.54 | enough cells in well | 68.8 | 120 | active |
| Plk3 (polo like kinase 3) | 0.3 | enough cells in well | 238 | 157 | inactive |
| Defb9 (defensin beta 9) | 0.29 | enough cells in well | 248 | 144 | inactive |
| Larp6 (La ribonucleoprotein 6, translational regulator) | 1.05 | enough cells in well | 269 | 172 | inactive |

Records above whose target name begins with T or t (2):
| Gene | Tnf reporter robust z-score | fewer than 50 cells in well | Tnf reporter intensity, replicate 1 | Tnf reporter intensity, replicate 2 | Call |
| --- | --- | --- | --- | --- | --- |
| Trem5 (triggering receptor expressed on myeloid cells 5) | 1.8 | enough cells in well | 283 | 310 | inactive |
| Ttll13 (tubulin tyrosine ligase-like family, member 13) | -0.21 | enough cells in well | 200 | 44 | inactive |

The results go on.
| Gene | Tnf reporter robust z-score | fewer than 50 cells in well | Tnf reporter intensity, replicate 1 | Tnf reporter intensity, replicate 2 | Call |
| --- | --- | --- | --- | --- | --- |
| Asic5 (acid-sensing ion channel family member 5) | 0.62 | enough cells in well | 265 | 211 | inactive |
| Mir9-2hg (Mir9-2 host gene) | -0.72 | enough cells in well | 90.3 | 115 | inactive |
| Sac3d1 (SAC3 domain containing 1) | – | fewer than 50 cells per well; well left out of calls | 166 | 31.2 | inactive |
| Ndrg2 (N-myc downstream regulated gene 2) | 0.73 | enough cells in well | 305 | 274 | inactive |
| Cuedc1 (CUE domain containing 1) | -0.28 | enough cells in well | 81.4 | 179 | inactive |
| AI597479 (expressed sequence AI597479) | 0.63 | enough cells in well | 259 | 217 | inactive |
| Alg2 (ALG2 alpha-1,3/1,6-mannosyltransferase) | 0.3 | enough cells in well | 245 | 189 | inactive |
| Dio1 (deiodinase, iodothyronine, type I) | 1.58 | enough cells in well | 285 | 151 | inactive |
| Tbc1d12 (TBC1D12: TBC1 domain family, member 12) | -0.81 | enough cells in well | 86.7 | 84.8 | inactive |
| Stat3 (signal transducer and activator of transcription 3) | 0.49 | enough cells in well | 350 | 229 | inactive |
| Nodal (nodal growth differentiation factor) | -1.24 | enough cells in well | 116 | 126 | inactive |
| Odr4 (odr4 GPCR localization factor homolog) | -0.87 | enough cells in well | 152 | 140 | inactive |
| Tlr9 (toll-like receptor 9) | -0.59 | enough cells in well | 186 | 108 | inactive |
| Urm1 (ubiquitin related modifier 1) | – | fewer than 50 cells per well; well left out of calls | 217 | 52.9 | inactive |
| Lmbr1 (limb region 1) | 1.19 | enough cells in well | 376 | 106 | inactive |
| Lpo (lactoperoxidase) | -0.25 | enough cells in well | 165 | 141 | inactive |
| Cd2ap (CD2-associated protein) | 0.13 | enough cells in well | 226 | 246 | inactive |
| Rarres2 (retinoic acid receptor responder (tazarotene induced) 2) | -1.1 | enough cells in well | 207 | 121 | inactive |
| Zfp3 (zinc finger protein 3) | 0.27 | enough cells in well | 244 | 186 | inactive |
| Mak (male germ cell-associated kinase) | – | fewer than 50 cells per well; well left out of calls | 166 | 119 | inactive |
| Gata2 (GATA binding protein 2) | 0.35 | enough cells in well | 304 | 249 | inactive |
| Gm9517 (predicted gene 9517) | – | fewer than 50 cells per well; well left out of calls | 143 | 29.9 | inactive |
| Naa60 (N(alpha)-acetyltransferase 60, NatF catalytic subunit) | 1.15 | enough cells in well | 323 | 105 | inactive |
| Ccdc157 (coiled-coil domain containing 157) | 1.78 | enough cells in well | 181 | 109 | inactive |
